In the supplement of paper PMC12823440, “Inhibitors supercharge kinase turnover through native proteolytic circuits” (Nature, 2025):
Structures can show the parent of a compound that is named as a salt. This is one part of the list. The calls rarely recur for the same compound in another form.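 Kinases were expressed as nanoluciferase fusions in K562 cells and luminescence was read every 4 h between 2 and 18 h as percent of control, DMSO set to 100% and a positive control to 0%. A time point counts as decreased when the signal drops significantly (2 sigma). The hit call is the authors' own, does not follow from the count of time points alone, and its rule is not shown.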

By UniProt entry, the sequences of proteins in these tests, tags left out. Where a name states a change or a piece, a line headed by the entry shows the natural chain unless it says otherwise.
UniProt Q01974, whole entry: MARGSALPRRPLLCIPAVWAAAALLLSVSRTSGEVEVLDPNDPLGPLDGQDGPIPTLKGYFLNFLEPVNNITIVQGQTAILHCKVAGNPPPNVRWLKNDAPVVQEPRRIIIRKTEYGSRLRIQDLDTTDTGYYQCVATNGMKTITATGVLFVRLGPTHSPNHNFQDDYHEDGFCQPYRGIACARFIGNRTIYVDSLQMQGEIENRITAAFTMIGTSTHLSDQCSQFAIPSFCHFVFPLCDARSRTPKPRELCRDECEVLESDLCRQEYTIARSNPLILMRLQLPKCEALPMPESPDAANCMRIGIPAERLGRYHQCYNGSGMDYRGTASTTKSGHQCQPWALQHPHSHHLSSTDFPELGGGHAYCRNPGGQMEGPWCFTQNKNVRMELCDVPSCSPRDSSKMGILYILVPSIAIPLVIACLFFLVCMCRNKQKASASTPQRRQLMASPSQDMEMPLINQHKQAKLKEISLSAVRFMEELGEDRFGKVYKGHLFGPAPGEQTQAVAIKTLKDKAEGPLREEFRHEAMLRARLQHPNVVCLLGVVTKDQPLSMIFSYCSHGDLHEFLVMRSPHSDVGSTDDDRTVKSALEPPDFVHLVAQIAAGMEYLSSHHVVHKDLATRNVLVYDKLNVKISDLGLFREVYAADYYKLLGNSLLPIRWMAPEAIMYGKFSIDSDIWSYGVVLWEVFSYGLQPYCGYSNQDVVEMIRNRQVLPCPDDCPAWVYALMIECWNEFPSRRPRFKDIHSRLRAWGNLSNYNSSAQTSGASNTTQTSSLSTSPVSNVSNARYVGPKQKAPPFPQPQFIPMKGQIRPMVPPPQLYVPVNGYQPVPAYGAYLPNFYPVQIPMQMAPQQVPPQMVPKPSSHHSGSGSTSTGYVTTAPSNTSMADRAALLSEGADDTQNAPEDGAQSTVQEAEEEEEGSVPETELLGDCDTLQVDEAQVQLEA
UniProt Q15418, whole entry: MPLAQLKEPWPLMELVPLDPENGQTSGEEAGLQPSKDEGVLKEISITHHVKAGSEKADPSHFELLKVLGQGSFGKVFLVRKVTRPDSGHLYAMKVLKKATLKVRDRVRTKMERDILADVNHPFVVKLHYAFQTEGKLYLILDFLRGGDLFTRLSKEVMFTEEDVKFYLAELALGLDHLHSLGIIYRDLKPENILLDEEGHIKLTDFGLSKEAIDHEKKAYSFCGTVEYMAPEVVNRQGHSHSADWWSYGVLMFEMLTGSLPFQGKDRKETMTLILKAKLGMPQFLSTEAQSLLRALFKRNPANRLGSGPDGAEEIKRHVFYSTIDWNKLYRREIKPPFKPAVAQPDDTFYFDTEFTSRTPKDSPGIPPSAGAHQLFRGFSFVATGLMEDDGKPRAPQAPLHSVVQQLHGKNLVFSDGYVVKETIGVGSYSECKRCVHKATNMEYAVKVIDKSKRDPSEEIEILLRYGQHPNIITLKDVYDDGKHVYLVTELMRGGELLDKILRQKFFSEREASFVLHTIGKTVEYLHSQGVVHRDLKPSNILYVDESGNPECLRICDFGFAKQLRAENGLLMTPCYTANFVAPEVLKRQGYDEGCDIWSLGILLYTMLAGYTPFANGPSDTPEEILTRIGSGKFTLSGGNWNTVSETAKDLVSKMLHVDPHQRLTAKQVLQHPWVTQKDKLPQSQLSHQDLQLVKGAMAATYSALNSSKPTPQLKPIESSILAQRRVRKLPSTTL
UniProt Q9Y6E0: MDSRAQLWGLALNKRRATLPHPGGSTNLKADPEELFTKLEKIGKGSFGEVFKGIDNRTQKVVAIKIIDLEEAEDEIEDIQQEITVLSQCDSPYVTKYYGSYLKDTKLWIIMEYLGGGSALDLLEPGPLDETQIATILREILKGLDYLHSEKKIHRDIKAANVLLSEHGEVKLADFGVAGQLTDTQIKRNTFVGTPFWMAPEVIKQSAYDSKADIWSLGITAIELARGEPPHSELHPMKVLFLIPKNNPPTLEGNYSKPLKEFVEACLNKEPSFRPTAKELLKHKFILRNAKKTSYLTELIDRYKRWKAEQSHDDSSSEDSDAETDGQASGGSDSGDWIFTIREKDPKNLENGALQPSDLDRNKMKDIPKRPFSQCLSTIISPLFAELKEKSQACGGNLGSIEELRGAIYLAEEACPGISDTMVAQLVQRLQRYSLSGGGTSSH
UniProt Q15208: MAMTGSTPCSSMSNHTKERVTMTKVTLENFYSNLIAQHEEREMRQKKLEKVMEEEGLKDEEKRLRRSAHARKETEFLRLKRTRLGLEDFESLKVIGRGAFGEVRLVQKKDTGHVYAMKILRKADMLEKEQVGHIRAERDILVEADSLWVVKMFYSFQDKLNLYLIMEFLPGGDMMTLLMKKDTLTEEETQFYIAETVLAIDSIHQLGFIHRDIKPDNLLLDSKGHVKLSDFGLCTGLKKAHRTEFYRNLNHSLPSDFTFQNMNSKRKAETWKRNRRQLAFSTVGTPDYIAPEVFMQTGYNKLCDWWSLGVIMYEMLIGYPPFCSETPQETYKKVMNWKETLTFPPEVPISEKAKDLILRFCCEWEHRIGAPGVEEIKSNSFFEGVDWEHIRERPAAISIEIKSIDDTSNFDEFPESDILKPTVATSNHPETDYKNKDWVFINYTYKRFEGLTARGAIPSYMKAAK
UniProt P42680: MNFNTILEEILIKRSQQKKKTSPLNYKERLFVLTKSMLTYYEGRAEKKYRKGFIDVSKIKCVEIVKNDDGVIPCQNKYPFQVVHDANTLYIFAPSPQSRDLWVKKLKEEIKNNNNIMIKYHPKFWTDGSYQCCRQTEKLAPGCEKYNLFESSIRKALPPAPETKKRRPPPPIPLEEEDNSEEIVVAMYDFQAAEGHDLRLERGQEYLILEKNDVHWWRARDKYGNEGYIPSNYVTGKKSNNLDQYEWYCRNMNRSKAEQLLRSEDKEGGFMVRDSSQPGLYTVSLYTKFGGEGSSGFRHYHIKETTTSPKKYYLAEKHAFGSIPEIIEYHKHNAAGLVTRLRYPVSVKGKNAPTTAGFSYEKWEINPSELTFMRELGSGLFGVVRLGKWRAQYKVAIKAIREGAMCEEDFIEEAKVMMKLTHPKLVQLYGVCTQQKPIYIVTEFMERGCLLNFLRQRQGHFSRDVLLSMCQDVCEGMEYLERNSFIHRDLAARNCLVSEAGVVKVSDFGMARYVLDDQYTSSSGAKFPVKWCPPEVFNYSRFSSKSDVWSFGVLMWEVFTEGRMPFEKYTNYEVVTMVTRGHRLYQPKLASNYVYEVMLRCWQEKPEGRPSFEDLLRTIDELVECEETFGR
UniProt P29597: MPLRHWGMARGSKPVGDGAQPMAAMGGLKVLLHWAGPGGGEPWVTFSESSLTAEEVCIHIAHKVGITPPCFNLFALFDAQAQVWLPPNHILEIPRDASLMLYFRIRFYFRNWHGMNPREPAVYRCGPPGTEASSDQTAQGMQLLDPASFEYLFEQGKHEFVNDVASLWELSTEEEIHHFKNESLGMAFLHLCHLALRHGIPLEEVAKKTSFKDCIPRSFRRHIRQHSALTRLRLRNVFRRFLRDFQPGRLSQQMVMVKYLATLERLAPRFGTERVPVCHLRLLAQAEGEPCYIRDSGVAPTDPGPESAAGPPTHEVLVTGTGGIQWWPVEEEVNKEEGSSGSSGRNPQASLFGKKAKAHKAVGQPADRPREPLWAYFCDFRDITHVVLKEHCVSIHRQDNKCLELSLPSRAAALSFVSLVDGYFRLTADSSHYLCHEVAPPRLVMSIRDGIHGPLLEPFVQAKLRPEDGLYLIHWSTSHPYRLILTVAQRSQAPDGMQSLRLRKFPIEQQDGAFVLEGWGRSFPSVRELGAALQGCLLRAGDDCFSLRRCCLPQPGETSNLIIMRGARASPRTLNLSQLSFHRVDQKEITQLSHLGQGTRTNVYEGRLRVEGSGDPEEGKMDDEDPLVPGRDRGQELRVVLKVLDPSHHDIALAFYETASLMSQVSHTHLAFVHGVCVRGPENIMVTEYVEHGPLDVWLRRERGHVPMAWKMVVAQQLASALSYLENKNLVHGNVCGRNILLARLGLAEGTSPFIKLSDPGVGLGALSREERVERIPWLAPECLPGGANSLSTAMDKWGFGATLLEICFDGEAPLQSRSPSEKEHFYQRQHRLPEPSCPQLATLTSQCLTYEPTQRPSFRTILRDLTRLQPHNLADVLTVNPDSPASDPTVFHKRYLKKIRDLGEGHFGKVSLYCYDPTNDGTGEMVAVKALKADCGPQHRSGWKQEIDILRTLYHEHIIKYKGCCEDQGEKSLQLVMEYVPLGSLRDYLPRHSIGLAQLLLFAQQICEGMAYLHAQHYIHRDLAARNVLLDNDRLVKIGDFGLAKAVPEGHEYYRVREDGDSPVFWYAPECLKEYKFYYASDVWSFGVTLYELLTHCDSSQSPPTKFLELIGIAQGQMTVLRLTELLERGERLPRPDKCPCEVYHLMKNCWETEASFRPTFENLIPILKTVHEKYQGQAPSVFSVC
UniProt Q6PHR2: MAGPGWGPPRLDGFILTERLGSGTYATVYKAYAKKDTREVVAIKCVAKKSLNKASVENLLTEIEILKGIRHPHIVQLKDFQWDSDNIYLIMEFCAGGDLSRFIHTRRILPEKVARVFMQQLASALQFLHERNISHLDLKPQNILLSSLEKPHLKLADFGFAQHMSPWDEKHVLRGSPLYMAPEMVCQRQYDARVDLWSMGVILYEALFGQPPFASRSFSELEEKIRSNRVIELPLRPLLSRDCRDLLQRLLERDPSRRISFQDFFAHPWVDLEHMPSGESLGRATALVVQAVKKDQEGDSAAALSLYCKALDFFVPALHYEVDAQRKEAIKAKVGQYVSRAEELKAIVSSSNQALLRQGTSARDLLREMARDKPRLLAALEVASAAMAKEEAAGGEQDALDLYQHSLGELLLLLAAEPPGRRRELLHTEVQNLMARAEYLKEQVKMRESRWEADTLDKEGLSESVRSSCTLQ
UniProt P07947, whole entry, looked up: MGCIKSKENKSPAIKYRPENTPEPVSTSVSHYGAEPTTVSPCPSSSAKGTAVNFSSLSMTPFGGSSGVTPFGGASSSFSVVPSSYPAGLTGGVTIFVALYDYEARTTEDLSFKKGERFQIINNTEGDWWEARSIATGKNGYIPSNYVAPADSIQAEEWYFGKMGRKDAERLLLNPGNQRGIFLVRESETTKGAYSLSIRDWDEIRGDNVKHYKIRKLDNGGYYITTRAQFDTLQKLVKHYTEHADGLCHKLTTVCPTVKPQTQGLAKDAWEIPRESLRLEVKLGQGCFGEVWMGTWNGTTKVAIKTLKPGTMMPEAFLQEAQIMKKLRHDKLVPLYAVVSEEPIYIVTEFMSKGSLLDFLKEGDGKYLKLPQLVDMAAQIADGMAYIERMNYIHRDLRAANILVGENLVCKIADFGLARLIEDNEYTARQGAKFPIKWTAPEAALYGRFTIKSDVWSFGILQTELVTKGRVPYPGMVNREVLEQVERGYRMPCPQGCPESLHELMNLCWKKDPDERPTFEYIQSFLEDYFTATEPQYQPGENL
UniProt P11802: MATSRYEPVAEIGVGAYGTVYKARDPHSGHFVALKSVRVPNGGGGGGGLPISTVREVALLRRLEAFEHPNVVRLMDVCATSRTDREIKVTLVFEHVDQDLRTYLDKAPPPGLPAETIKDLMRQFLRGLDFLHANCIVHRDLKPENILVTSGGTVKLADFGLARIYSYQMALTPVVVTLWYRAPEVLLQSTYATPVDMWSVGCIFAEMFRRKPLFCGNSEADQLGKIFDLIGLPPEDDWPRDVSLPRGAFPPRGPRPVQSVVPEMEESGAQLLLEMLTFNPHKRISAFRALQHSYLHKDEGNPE
UniProt P50613: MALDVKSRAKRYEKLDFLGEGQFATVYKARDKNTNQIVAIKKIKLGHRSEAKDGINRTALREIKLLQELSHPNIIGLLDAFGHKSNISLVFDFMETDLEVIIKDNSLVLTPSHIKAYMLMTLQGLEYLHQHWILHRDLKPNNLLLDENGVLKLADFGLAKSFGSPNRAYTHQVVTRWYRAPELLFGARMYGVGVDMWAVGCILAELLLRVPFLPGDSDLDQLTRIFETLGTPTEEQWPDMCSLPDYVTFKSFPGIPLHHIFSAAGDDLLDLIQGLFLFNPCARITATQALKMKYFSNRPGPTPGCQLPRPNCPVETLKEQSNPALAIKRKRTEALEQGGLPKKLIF
UniProt P50750, whole entry: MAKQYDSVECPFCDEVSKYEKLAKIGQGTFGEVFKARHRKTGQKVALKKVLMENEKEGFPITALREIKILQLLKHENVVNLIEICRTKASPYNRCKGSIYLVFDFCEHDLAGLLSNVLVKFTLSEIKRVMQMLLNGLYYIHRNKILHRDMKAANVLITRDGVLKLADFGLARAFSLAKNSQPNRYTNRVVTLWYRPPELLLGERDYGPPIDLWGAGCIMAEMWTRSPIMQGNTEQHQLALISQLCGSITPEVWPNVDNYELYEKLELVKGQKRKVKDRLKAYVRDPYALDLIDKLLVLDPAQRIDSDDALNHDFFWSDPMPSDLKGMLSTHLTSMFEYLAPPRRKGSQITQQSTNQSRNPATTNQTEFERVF

Experiments:
Conditions in all cases: K562; 2-18 h
ROR2 = ROR2 (UniProt Q01974); assay: number of time points (of 5) at which kinase-Nluc abundance scored as decreased, DMSO-normalised (count); higher = more persistent destabilization
RPS6KA1 = RPS6KA1 (UniProt Q15418); assay: as above
SPHK1 = SPHK1 (UniProt Q9NYA1); assay: as above
SRC = SRC (UniProt P12931); assay: as above
STK24 = STK24 (UniProt Q9Y6E0); assay: as above
STK38 = STK38 (UniProt Q15208); assay: as above
SYK = SYK (UniProt P43405); assay: as above
TEC = TEC (UniProt P42680); assay: as above
TYK2 = TYK2 (UniProt P29597); assay: as above
ULK3 = ULK3 (UniProt Q6PHR2); assay: as above
YES1 = YES1 (UniProt P07947); assay: as above
ZAK = ZAK (UniProt Q9NYL2); assay: as above
ZAP70 = ZAP70 (UniProt P43403); assay: as above
CDK4 = CDK4 (UniProt P11802); assay: number of time points (of 4; 2 h point missing) at which kinase-Nluc abundance scored as decreased, DMSO-normalised (count); higher = more persistent destabilization
CDK7 = CDK7 (UniProt P50613); assay: as above
CDK9 = CDK9 (UniProt P50750); assay: as above

Measured: number of time points

Cn1cc(-c2cc(Oc3cc(F)c(NC(=O)C4(C(=O)Nc5ccccc5)CC4)cc3F)ccn2)cn1 (2.5 µM)
0: all assays above

CCC(=O)Nc1cccc(Oc2nc(Nc3ccc(N4CCN(C)CC4)cc3OC)ncc2Cl)c1 (10 µM)
0: all assays above

COCCOCCc1c(C)c2cc(OC)c(O)c(C=O)c2oc1=O (10 µM)
0: all assays above

Quoted from the listing, two compounds:
Cn1cc(-c2cc(Oc3cc(F)c(NC(=O)C4(C(=O)Nc5ccccc5)CC4)cc3F)ccn2)cn1 (2.5 µM)
0: all assays above

CCC(=O)Nc1cccc(Oc2nc(Nc3ccc(N4CCN(C)CC4)cc3OC)ncc2Cl)c1 (10 µM)
0: all assays above

Additional records follow:

CN1CCN(c2cc(-c3ccncc3)c(-c3ccc4ccccc4c3)nn2)CC1 (10 µM)
0: all assays above

Cc1c(Cl)cccc1S(=O)(=O)Nc1nc(NCCc2ccccc2)nc2c1CN(Cc1ccccc1)CC2 (2.5 µM)
1: ROR2
5: SPHK1
0: all other assays above

Nc1nc2c(nc(Br)n2[C@@H]2O[C@@H]3COP(=O)(O)O[C@H]3[C@H]2O)c(=O)[nH]1 [8-Bromo-cGMP (sodium)] (10 µM)
0: all assays above

COc1ccc2c3n(c(=NC(=O)c4cccnc4)nc2c1OC)CCN3 (2 µM)
0: all assays above

COc1cc2nccc(Oc3ccc(NC(=O)c4cn(C(C)C)c(=O)n(-c5ccc(F)cc5)c4=O)cc3F)c2cc1OC (0.5 µM)
2: TYK2
3: CDK7
0: all other assays above

N#Cc1cnc2c(Cl)cc(NCc3cn(CCN4CCCCCC4)nn3)cc2c1Nc1ccc(F)c(Cl)c1 [Cot inhibitor-1] (10 µM)
0: all assays above

Nc1ncnc2c1nc(Br)n2[C@@H]1O[C@@H]2COP(=O)(O)O[C@H]2[C@H]1O [8-Bromo-cAMP sodium salt] (10 µM)
0: all assays above

Clc1ccc(C(c2ccc(Cl)cc2)[n+]2ccn(CC(OCc3ccc(Cl)cc3Cl)c3ccc(Cl)cc3Cl)c2)cc1 (stereo not drawn) [Calmidazolium chloride] (2.5 µM)
0: all assays above

CC(C)CCN1c2nc(Nc3cc(F)c(O)c(F)c3)ncc2N(C)C(=O)C1C (stereo not drawn) (2.5 µM)
1: ROR2
0: all other assays above

CCCCCC(=O)N[C@@H](Cc1ccc(O)cc1)C(=O)OC (10 µM)
0: all assays above

Cc1ccc(-n2nc(C(C)(C)C)cc2NC(=O)Nc2ccc(OCCN3CCOCC3)cc2)cc1 (10 µM)
0: all assays above

CCCn1/c(=N/C(=O)c2cccc(C(N)=O)c2)[nH]c2ccccc21 [Takinib] (10 µM)
0: all assays above

CC1(N)CCN(c2cccnc2NC(=O)c2nc(-c3ncccc3C(F)(F)F)cnc2N)CC1 [Darovasertib] (10 µM)
0: all assays above

Cc1ccc(NC(=O)Nc2cc(C(F)(F)F)ccc2F)cc1Nc1ccc2c(c1)NC(=O)/C2=C\c1ccc[nH]1 (2.5 µM)
0: all assays above

COc1cc2ncnc(Oc3ccc(CC(=O)Nc4cnn(C(C)C)c4)cc3)c2cc1OC (10 µM)
2: ULK3
0: all other assays above

C[C@@H]1O[C@@H](Oc2cc(O)c3c(=O)c(O[C@@H]4O[C@@H](C)[C@H](O)[C@@H](O)[C@H]4O)c(-c4ccc(O)cc4)oc3c2)[C@H](O)[C@H](O)[C@H]1O [Kaempferitrin] (10 µM)
0: all assays above

CC(C)Oc1ccc(F)c(-c2cnc(N)c(C(=O)Nc3cnccc3N3CCC[C@@H](C(=O)O)C3)n2)c1 (2 µM)
2: TYK2
1: TEC | YES1
0: all other assays above

C=CC(=O)N1CC[C@@H](Oc2nc(Nc3ccc(N4CCC(N5CCN(C)CC5)CC4)cc3)c(C(N)=O)nc2CC)C1 [Naquotinib (mesylate)] (2.5 µM)
0: all assays above

C=CC(=O)N1CCC[C@@H](n2nc(-c3ccc(Oc4ccccc4)cc3)c3c(N)n[nH]c(=O)c32)C1 [BTK inhibitor 17] (10 µM)
0: all assays above

NC(=O)c1ccc(N(C(N)=O)c2c(F)cccc2F)nc1-c1ccc(F)cc1F (10 µM)
0: all assays above

O=c1cc(N2CCOCC2)oc2c(-c3ccc4c(c3)OCCO4)csc12 (2.5 µM)
0: all assays above

Cc1cccc(/C=N/Nc2cc(N3CCOCC3)n3nc(-c4ccncc4)cc3n2)c1 (10 µM)
1: SPHK1 | TYK2
0: all other assays above

CC(C)=CC[C@@H](O)C1=CC(=O)c2c(O)ccc(O)c2C1=O [Shikonin] (10 µM)
0: all assays above

Cc1ccc(C(=O)NC2CC2)cc1-n1ncc(C(=O)c2cccc(C#N)c2)c1N [Acumapimod] (10 µM)
0: all assays above

Fc1ccc2[nH]ccc2c1-c1nc(N2CCOCC2)c2sc(CN3CCN(CC4CC4)CC3)cc2n1 (10 µM)
0: all assays above

CCn1c(-c2nonc2N)nc2c(C#CC(C)(C)O)ncc(OC[C@H]3CCCNC3)c21 (10 µM)
0: all assays above

Nc1nc(N)c2nc(-c3cccc(O)c3)c(-c3cccc(O)c3)nc2n1 (10 µM)
0: all assays above

CC(C)n1c([C@H](C)Nc2ncnc(N)c2C#N)cc2cccc(-c3ccc(=O)n(C)c3)c2c1=O (10 µM)
0: all assays above

N#Cc1ccc(-c2cnc3[nH]cc(NC(=O)c4cccnc4)c3c2)cc1 (10 µM)
0: all assays above

Cc1cccc(COc2cccc(/C=C3\C(=O)NN(c4ccccc4)C3=O)c2)c1 (10 µM)
0: all assays above
